Experimental data: US5472841
For some of these results: Construct, isoform or probe ends are uncertain for at least one entry. For some of these results: No signal at the amounts used counts as a negative. For some of these results: Tags and fusion partners may be left off the protein sequences shown.

Sequences of proteins named here, by UniProt entry; tags and fusion partners are left off. Residues count along the entry.
UniProt P09038, 143-288: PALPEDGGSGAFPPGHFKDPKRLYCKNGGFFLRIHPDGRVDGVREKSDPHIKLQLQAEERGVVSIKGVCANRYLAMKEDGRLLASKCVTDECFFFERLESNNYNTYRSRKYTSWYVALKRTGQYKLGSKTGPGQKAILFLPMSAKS

Tests used:
[1] = biological target: T1, Human neutrophil elastase (Homo sapiens) (UniProt P08246); assay: filter binding; settings: purified native protein, protein details: Athens Research and Technology; for Kd: 2'-NH2 all pyrimidines
T1 sequence (looked up, limits assumed): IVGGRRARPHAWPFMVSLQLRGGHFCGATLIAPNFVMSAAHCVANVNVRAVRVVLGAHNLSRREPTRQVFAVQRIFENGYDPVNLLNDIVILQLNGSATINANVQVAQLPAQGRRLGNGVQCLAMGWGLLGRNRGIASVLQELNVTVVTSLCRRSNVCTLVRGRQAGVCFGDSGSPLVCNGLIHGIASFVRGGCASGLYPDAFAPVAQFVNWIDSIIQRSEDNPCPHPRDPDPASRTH

[2] = biological target: T1, Human neutrophil elastase (Homo sapiens); assay: activity in cells; settings: 2'-NH2 all pyrimidines; inhibits elastase-induced endothelial cell detachment; purified native protein; protein details: Athens Research and Technology; dose not given here
[3] = biological target: Basic fibroblast growth factor (bFGF) (UniProt P09038); assay: filter binding; settings: 2'-NH2 all pyrimidines; specificity control; purified recombinant protein
[4] = biological target: T2, Human neutrophil elastase irreversibly complexed with N-methoxysuccinyl-Ala-Ala-Pro-Val-chloromethyl ketone (Homo sapiens) (UniProt P08246); assay: filter binding; settings: 2'-NH2 all pyrimidines; active site blocked; purified native protein
T2 sequence (looked up, limits assumed): T1 sequence (looked up, limits assumed)

[5] = 150 mM KCl, 100 mM Tris pH 7.0, 2 mM MgCl2
[6] = 150 mM LiCl, 100 mM Tris pH 7.0, 2 mM MgCl2

| Sequence | Kd [1, 5] [nM] | Kd [1, 6] [nM] | Kd ([1]; 150 mM Tris-HCl, 2 mM MgCl2) [nM] | functional effect of the aptamer [2] | also measured |
| --- | --- | --- | --- | --- | --- |
| GGGAGCUCAGAAUAAACGCUCAAGAGUAGGCUUGACGCCUGGGGGGGUAUGGCUUCGACUGCGUUCGACAUGAGGCCCGGAUCCGGC [ligand 30 (class I; ligand 12 same SEQ ID)] | 3.8 | 581 | 38 | active | Kd ([1]; binding buffer 150 mM NaCl, 100 mM Tris pH 7.0, 2 mM MgCl2, 6 mM KCl, 37C, ligand 12 (same SEQ) also 10 nM in Table 4): 10 nM |
| GGGAGCUCAGAAUAAACGCUCAAGGAAUGAAUGUGAUGAACAGGUGUCGGGGUGGAUGGGUGGUUCGACAUGAGGCCCGGAUCCGGC [ligand 9 (class III)] | 378 | 231 | 34 | – | Kd ([1]; 6 mM KCl, 2 mM MgCl2, pH 7.0, 9.7 nM in Table 3): 10 nM |
| GGGAGCUCAGAAUAAACGCUCAAGGUAGACAUACGCCUUGGGGGGGUAUCAGGGUAUAUGGUAUUCGACAUGAGGCCCGGAUCCGGC [ligand 24 (class II)] | – | – | – | active | Kd [3]: > 1000 nM |
| GGGAGCUCAGAAUAAACGCUCAAGGUAGACAUACGCCUUGGGGGGGUGCCAGGGUAUAUGGUAUUCGACAUGAGGCCCGGAUCCGGC [ligand 34 (class II)] | 5.5 | 669 | 59 | – | Kd ([1]; 6 mM KCl, 2 mM MgCl2, pH 7.0): 8 nM; Kd ([1]; native elastase control in same experiment as the chloromethyl ketone complex): 25 nM; Kd [4]: 26 nM |
| GGGAGCUCAGAAUAAACGCUCAAUGCCCGGCAGUACUGCACGGCCUCGGGGGGGACCAGGGAGUUCGACAUGAGGCCCGGAUCCGGC [ligand 19 (class IV)] | – | – | – | active | – |
| TAGCGATACTGCGTGGGGGGGGGGGGCCAGCAGTCTCGTGCGGTACTTGAGCA [17-LQT] | – | – | – | – | binding result ([1]; 18-carbon ethylene glycol linker (L) replacing connecting loop nucleotides (n positions) [L = 18-carbon ethylene glycol linker (left out) between 17/18, 20/21, 23/24], no significant affinity, single-stranded DNA, letters built from the parent sequence and the stated change, variant of DNA-17): no binding |
